What is called melting point is the temperature of the solid-liquid transition. For `Cc1ccc(C(=O)N[C@H]2CC[C@H](CCN3CCN(c4nccc5c4CCO5)CC3)CC2)cn1`, the melting point came to 201 °C.

The record behind these values is a melting point compilation (Tetko et al.; mined from patent text by program, amines drawn as free bases though some values may be those of a salt).
